Results reported in patent US20140314799A1.
No constants are given. Whether binding was seen depends on the method and setting. In cells and extracts the contact can be indirect. Some entries that bind do so weakly or less than the wild type.

Protein sequences, listed by entry. Tags and fused reporters are not part of them. Lines headed by an entry give the natural chain unless they say otherwise; changes in a name come on top.
UniProt O60603: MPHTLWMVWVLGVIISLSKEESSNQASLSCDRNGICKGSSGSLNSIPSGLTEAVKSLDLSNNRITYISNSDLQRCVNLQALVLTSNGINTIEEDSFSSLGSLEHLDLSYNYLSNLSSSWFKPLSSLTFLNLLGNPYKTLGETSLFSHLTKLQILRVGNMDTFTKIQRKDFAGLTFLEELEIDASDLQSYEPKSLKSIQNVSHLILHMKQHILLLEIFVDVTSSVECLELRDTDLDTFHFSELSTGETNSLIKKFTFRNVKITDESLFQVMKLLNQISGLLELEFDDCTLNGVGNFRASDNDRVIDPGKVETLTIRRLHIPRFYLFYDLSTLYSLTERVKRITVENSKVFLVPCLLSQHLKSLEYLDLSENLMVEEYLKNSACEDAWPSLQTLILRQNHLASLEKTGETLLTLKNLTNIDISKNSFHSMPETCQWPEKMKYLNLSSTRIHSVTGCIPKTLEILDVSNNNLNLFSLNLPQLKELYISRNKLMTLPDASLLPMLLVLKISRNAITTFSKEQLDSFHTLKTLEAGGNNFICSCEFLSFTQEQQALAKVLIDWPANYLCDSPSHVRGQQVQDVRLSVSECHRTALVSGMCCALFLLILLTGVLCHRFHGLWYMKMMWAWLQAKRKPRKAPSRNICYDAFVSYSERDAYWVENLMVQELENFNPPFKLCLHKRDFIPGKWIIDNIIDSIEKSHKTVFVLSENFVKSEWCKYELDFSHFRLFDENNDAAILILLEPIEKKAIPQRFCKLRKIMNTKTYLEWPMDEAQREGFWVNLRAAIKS
UniProt P08253: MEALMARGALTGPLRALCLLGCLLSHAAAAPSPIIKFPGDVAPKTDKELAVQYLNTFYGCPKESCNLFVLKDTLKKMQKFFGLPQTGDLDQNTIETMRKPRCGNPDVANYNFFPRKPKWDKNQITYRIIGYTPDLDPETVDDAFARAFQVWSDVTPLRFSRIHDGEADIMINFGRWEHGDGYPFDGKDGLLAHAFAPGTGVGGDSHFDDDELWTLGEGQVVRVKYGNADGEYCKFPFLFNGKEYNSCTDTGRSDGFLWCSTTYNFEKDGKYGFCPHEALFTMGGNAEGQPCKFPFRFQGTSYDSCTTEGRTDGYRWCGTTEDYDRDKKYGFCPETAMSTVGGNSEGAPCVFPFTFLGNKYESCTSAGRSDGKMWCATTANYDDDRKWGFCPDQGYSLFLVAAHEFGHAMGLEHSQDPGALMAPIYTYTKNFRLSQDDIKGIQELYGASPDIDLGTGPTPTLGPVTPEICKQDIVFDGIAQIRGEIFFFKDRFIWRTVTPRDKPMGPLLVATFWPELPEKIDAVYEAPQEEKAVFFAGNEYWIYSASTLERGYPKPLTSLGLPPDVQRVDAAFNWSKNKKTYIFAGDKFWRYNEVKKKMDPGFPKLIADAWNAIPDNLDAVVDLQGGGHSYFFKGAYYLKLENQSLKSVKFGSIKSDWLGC

Legend:
[1] = biological target: human toll-like receptor-2 (TLR-2) (human) (UniProt O60603); assay: co-immunoprecipitation (protein G-agarose) from moDCs or TLR2-transfected HEK cells incubated 20 min with 5 µg/ml MMP-2, Western blot
[2] = biological target: human toll-like receptor-2 (TLR-2) (human) (UniProt O60603); assay: co-immunoprecipitation from lysates of moDCs or TLR2-transfected HEK cells treated with 5 µg/ml MMP-2; IP of TLR2 or of MMP-2, Western blot

For “Purified human matrix metalloproteinase-2 (MMP-2) (from UniProt P08253 110-660) (enzyme)”, the binding [1] was “binds” and the binding [2] was “binds”.
